Assay results reported in paper PMC9876571.
No constants are given. Whether binding was seen depends on the method and setting. Binding seen in cells or lysates may run through a third protein. Some results given as binding are weak or reduced against the parent protein; the word gives no strength.

Amino acid sequences for entries named in this document (tags omitted).
UniProt P42128: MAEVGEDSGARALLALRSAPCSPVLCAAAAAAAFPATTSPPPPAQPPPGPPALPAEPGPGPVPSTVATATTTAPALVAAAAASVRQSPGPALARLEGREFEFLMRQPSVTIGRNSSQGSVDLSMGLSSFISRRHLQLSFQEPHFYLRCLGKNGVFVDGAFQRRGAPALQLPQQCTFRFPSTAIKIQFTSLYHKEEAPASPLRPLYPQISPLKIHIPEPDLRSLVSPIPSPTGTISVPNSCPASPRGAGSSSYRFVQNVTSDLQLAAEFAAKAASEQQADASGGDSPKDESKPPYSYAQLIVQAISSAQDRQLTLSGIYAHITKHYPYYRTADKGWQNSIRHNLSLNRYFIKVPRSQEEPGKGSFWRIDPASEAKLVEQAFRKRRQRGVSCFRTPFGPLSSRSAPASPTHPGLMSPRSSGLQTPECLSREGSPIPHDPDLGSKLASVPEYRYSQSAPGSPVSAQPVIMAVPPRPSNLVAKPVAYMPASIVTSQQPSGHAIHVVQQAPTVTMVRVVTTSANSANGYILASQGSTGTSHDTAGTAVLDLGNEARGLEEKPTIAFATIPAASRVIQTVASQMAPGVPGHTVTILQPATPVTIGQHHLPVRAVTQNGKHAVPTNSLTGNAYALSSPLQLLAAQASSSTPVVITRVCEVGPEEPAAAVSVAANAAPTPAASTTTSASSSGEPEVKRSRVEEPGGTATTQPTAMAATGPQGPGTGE

Target: Foxk1 (mouse (endogenous in C2C12)) (UniProt P42128)
Experiment: co-IP; C2C12 myotubes (differentiated 8 days, 1 uM insulin for 6 hr before harvest), lysed in IP buffer (50 mM Tris-HCl pH 8.0, 5 mM EDTA, 150 mM NaCl, 0.5% NP-40, 0.5% Triton X-100), incubated with specific antibodies, Dynabeads protein A/G, western blot

B1: Sin3A (protein, UniProt Q60520 1-1274)
chain: MKRRLDDQESPVYAAQQRRIPGSTEAFSHQHRVLAPAPPVYEAVSETMQSATGIQYSVAPNYQVSAVPQSSGSHGPAIAAVHSSHHHPTAVQPHGGQVVQSHAHPAPPVAPVQGQQQFQRLKVEDALSYLDQVKLQFGSQPQVYNDFLDIMKEFKSQSIDTPGVISRVSQLFKGHPDLIMGFNTFLPPGYKIEVQTNDMVNVTTPGQVHQIPTHGIQPQPQPPPQHPSQPSSQSAPTPAQPAPQPTAAKVSKPSQLQAHTPASQQTPPLPPYASPRSPPVQPHTPVTISLGTAPSLQNNQPVEFNHAINYVNKIKNRFQGQPDIYKAFLEILHTYQKEQRNAKEAGGNYTPALTEQEVYAQVARLFKNQEDLLSEFGQFLPDANSSVLLSKTTAEKVDSVRNDHGGTVKKPQLNNKPQRPSQNGCQIRRHSGTGATPPVKKKPKLMSLKESSMADASKHGVGTESLFFDKVRKALRSAEAYENFLRCLVIFNQEVISRAELVQLVSPFLGKFPELFNWFKNFLGYKESVHLESFPKERATEGIAMEIDYASCKRLGSSYRALPKSYQQPKCTGRTPLCKEVLNDTWVSFPSWSEDSTFVSSKKTQYEEHIYRCEDERFELDVVLETNLATIRVLEAIQKKLSRLSAEEQAKFRLDNTLGGTSEVIHRKALQRIYADKAADIIDGLRKNPSIAVPIVLKRLKMKEEEWREAQRGFNKVWREQNEKYYLKSLDHQGINFKQNDTKVLRSKSLLNEIESIYDERQEQATEENAGVPVGPHLSLAYEDKQILEDAAALIIHHVKRQTGIQKEDKYKIKQIMHHFIPDLLFAQRGDLSDVEEEEEEEMDVDEATGAPKKHNGVGGSPPKSKLLFSNTAAQKLRGMDEVYNLFYVNNNWYIFMRLHQILCLRLLRICSQAERQIEEENREREWEREVLGIKRDKSDSPAIQLRLKEPMDVDVEDYYPAFLDMVRSLLDGNIDSSQYEDSLREMFTIHAYIAFTMDKLIQSIVRQLQHIVSDEVCVQVTDLYLAENNNGATGGQLNSQTSRSLLESAYQRKAEQLMSDENCFKLMFIQSQGQVQLTVELLDTEEENSDDPVEAERWSDYVERYMSSDTTSPELREHLAQKPVFLPRNLRRIRKCQRGREQQEKEGKEGNSKKTMENVESLDKLECRFKLNSYKMVYVIKSEDYMYRRTALLRAHQSHERVSKRLHQRFQAWVDKWTKEHVPREMAAETSKWLMGEGLEGLVPCTTTCDTETLHFVSINKYRVKYGTVFKAP
  binding: binds
